Experimental data as given in US7919519B2, “S1P receptor modulating compounds and use thereof” (Epix Pharmaceuticals Inc., priority 2005, dated 2011).
Some results were stated once for a whole list of compounds, not compound by compound. At least one structure is not confirmed: it was looked up by name or label, or the drawing left a doubt.

Amino acid sequences for entries named in this document (tags omitted). A change or cut given only in a name is not applied to a line headed by its entry.
UniProt Q99500: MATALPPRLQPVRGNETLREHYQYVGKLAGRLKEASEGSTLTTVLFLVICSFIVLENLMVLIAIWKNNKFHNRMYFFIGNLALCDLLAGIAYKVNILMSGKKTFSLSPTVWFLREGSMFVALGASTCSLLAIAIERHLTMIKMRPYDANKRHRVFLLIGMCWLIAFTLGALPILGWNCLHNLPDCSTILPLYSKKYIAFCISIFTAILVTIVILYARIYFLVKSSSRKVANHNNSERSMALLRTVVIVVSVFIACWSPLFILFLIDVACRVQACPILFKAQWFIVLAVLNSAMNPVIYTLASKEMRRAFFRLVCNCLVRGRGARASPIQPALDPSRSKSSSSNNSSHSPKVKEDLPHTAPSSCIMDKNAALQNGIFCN

Target: T1, hS1P3 (Homo sapiens, UniProt Q99500)
T1 construct: expressed in transfected cells
Assay: hS1P1:hS1P3 EC50 selectivity
Assay type: cell-based
Conditions: hS1P1 versus hS1P3

SMILES: O=C(O)C1CN(Cc2ccc(-c3cc4cc(Sc5ccccc5)ccc4o3)c(F)c2)C1 [1-(3-Fluoro-4-(5-phenylthio)benzofuran-2-yl)benzyl)azetidine-3-carboxylic acid]
- hS1P1:hS1P3 EC50 selectivity ratio: > 1:100
